Consider one molecule from patent US20160031957A1 (UNITED STATES OF AMERICA AS REPRESENTED BY THE SECRETARY …, published 2016).

Protein sequences, listed by entry. Tags and fused reporters are not part of them. Lines headed by an entry give the natural chain unless they say otherwise; changes in a name come on top.
UniProt Q9BXL7: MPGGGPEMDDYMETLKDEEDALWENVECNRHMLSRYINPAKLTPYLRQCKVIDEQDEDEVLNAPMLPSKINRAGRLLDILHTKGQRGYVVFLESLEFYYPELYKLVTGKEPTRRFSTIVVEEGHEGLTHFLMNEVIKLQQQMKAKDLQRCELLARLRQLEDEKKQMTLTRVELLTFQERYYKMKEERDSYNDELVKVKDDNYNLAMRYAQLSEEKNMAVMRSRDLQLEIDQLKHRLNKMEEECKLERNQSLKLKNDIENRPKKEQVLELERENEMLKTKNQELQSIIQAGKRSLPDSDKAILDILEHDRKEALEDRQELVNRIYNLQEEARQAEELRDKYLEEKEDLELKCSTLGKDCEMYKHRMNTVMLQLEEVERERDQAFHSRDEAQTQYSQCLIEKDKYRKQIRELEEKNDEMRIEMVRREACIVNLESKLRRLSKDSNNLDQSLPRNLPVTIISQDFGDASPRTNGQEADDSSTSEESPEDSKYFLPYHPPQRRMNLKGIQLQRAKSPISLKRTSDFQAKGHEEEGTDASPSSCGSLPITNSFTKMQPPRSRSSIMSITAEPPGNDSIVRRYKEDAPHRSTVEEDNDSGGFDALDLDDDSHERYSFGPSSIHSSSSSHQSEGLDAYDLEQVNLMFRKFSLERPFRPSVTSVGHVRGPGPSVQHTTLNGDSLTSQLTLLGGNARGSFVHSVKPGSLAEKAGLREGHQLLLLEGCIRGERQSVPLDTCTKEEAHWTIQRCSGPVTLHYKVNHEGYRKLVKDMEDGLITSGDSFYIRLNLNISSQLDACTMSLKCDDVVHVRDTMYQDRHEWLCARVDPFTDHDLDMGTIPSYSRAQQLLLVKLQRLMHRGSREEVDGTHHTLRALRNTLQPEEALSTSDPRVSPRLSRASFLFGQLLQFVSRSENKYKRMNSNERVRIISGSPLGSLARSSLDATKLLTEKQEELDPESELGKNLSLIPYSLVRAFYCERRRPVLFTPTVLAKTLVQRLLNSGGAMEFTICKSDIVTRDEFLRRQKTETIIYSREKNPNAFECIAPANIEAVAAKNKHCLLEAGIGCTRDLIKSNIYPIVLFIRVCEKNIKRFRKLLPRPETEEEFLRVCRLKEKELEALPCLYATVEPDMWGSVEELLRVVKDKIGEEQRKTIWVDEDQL

In this experiment the target is CBM complex (CARD11, MALT1 and BCL10) (UniProt Q9BXL7). The experiment in a line: recruitment to the CBM complex in ABC DLBCL cells; method not detailed.

No constants are given. Whether binding was seen depends on the method and setting. Some results given as binding are weak or reduced against the parent protein; the word gives no strength.

B1: A20 (enzyme, UniProt P21580 2-790, looked up)
chain: AEQVLPQALYLSNMRKAVKIRERTPEDIFKPTNGIIHHFKTMHRYTLEMFRTCQFCPQFREIIHKALIDRNIQATLESQKKLNWCREVRKLVALKTNGDGNCLMHATSQYMWGVQDTDLVLRKALFSTLKETDTRNFKFRWQLESLKSQEFVETGLCYDTRNWNDEWDNLIKMASTDTPMARSGLQYNSLEEIHIFVLCNILRRPIIVISDKMLRSLESGSNFAPLKVGGIYLPLHWPAQECYRYPIVLGYDSHHFVPLVTLKDSGPEIRAVPLVNRDRGRFEDLKVHFLTDPENEMKEKLLKEYLMVIEIPVQGWDHGTTHLINAAKLDEANLPKEINLVDDYFELVQHEYKKWQENSEQGRREGHAQNPMEPSVPQLSLMDVKCETPNCPFFMSVNTQPLCHECSERRQKNQNKLPKLNSKPGPEGLPGMALGASRGEAYEPLAWNPEESTGGPHSAPPTAPSPFLFSETTAMKCRSPGCPFTLNVQHNGFCERCHNARQLHASHAPDHTRHLDPGKCQACLQDVTRTFNGICSTCFKRTTAEASSSLSTSLPPSCHQRSKSDPSRLVRSPSPHSCHRAGNDAPAGCLSQAARTPGDRTGTSKCRKAGCVYFGTPENKGFCTLCFIEYRENKHFAAASGKVSPTASRFQNTIPCLGRECGTLGSTMFEGYCQKCFIEAQNQRFHEAKRTEEQLRSSQRRDVPRTTQSTSRPKCARASCKNILACRSEELCMECQHPNQRMGPGAHRGEPAPEDPPKQRCRAPACDHFGNAKCNGYCNECFQFKQMYG
With B1, the binding entry is listed as “binds”.
